Reference: patent US20120135912A1 (PERSEID THERAPEUTICS, published 2012)

B1: human 2D-VCAM-1 (ligand)
chain: FKIETTPESRYLAQIGDSVSLTCSTTGCESPFFSWRTQIDSPLNGKVTNEGTTSTLTMNPVSFGNEHSYLCTATCESRKLEKGIQVEIYSFPKDPEIHLSGPLEAGKPITVKCSVADVYPFDRLEIDLLKGDHLMKSQEFLEDADRKSLETKSLEVTFTPVIEDIGKVLVCRAKLHIDEMDSVPTVRQAVKELQVYISP
notes: also called wild type 2D-VCAM-1; wt-2D-VCAM-1; not shown: His tag
B2: 2D-VCAM-1 variant Clone 46 (ligand)
chain: B1 chain with T37P, I39L, S41A
notes: also called Clone 046; not shown: His tag
B3: 2D-VCAM-1 variant Clone 47 (ligand)
chain: B1 chain with T37P, Q38L, I39L
notes: also called Clone 047; not shown: His tag
B4: 2D-VCAM-1 variant Clone 59 (ligand)
chain: B1 chain with T37P, Q38L, I39L, L141F, D145A, R146W
notes: also called Clone 059; not shown: His tag
B5: 2D-VCAM-1 variant Clone 146 (ligand, not shown: small tags and cut ends)
chain: B1 chain with F32L, S34F, T37P, Q38L, I39L, T74R, K79S

What was measured:
[1] = biological target: guinea pig VLA4 on guinea pig splenocytes (guinea pig); assay: flow cytometry on guinea pig splenocytes, with and without 1 mM MnCl2
[2] = biological target: guinea pig VLA4 on guinea pig splenocytes (guinea pig); assay: flow cytometry on guinea pig splenocytes, 50 ug/ml, 1 mM MnCl2 (activated VLA4)
[3] = biological target: guinea pig VLA4 on guinea pig splenocytes (guinea pig); assay: flow cytometry on guinea pig splenocytes, polypeptide at 50 ug/ml, detected with biotinylated anti-human VCAM-1 and streptavidin-PE, with and without 1 mM MnCl2 (Example 21A)

Binder	binding [1]	binding [2]	binding [3]
B1	no binding (tested: 50 ug/ml)	–	–
B2	–	binds	binds
B3	–	binds	binds
B4	–	binds	binds
B5	–	binds	binds

Positions count from the first letter of the chain named. Results are given in words; binding and its absence hold for the method and conditions named. For part of these data: Binding can be weak; no strength is given.
